For at least one compound, name, drawing or mass did not settle the structure.
System: human adipocytes
Assay: Forskolin-stimulated lipolysis (glycerol release) in human adipocytes
Format: cell-based
Details: forskolin treatment

In the case of `C=C[C@@]1(C)CC(=O)[C@]2(O)[C@@]3(C)[C@@H](O)CCC(C)(C)[C@@H]3[C@H](O)[C@H](OC(C)=O)[C@@]2(C)O1` [Forskolin, forskolin], the “increase in glycerol release” value is reported as “two-fold”.
